These results are taken from US9494572B2, “Method and compositions for treating cancer and related methods” (Icahn School of Medicine at Mount Sinai, priority 2011, dated 2016).

Common to all, as to settings: read-out: IC50, anti-proliferative
One test deals with Panc1 (pancreatic). Kind of test: Tumor cell growth in culture, Panc1. In kind it is cell-based. The source says: (§1) The effect of the tricylic (dibenzazapine) antidepressant, chloripramine on growth of certain tumor cell lines measured in cell culture.
The subject of another test is ASPC1 (pancreatic). Put plainly: Tumor cell growth in culture, ASPC1. In kind it is cell-based.
Excerpt: as §1

The next test deals with H1650 (lung). Kind of test: Tumor cell growth in culture, H1650. It is filed as cell-based, human.
Excerpt: as §1

Another test concerns MiaPaca2 (pancreatic). Put plainly: Tumor cell growth in culture, MiaPaca2. It is filed as cell-based.
Excerpt: as §1

On to `CN(C)CCCN1c2ccccc2CCc2ccc(Cl)cc21` [Chlorimpramine], for which the IC50 is 16 µM with Panc1 (pancreatic), 23 µM in the test with ASPC1 (pancreatic), around 40 µM with H1650 (lung) and 17 µM in the test with MiaPaca2 (pancreatic).
